16 compounds from PubChem BioAssay AID256 (DTP/NCI, 2004) can be followed below.

SMILES strings stand for the structures. The list is a part of this screen's results and no random one: it gathers some chemical classes. Not every dose and run of a compound is shown. T/C: endpoint of the treated group in % of that of the vehicle group. Some doses have a count of surviving animals in place of a T/C: the source files T/C as zero there, which appears to mark a toxic dose or a test without result, not a measured value. Some doses without a T/C left all or most animals alive at the check, yet need not have been tolerated: the source hardly ever lists a survival T/C far under the control, and the zero likely stands for such cases as well. Counts of survivors are from the toxicity check (mostly the fifth day) where no day follows; animals may have died later. Schedule codes are those of the source, read here as Q, the interval in days (D) or hours (H), X, the number of doses. Additions like (4×) stand for listed records that agree. Some schedule codes hold Z or #, which are not explained here. Where survival is the endpoint, the PubChem record calls one and a half times the control and up active, and a quarter to a half above the control has no call in these data; cut-offs in other NCI protocols can differ. Some doses were run more than once; their values stand side by side, smallest first. Some entries show no survivor count and are marked so; the dose need not have been tolerated. Some T/C values carry the count of animals alive at the toxicity check (mostly the fifth day); without a count or a note in brackets, all were alive then.

This experiment has as its system CD2F1 mice, L1210 leukemia ip, survival T/C. In words: NCI In Vivo Anticancer Drug Screen. Data for tumor model L1210 Leukemia (intraperitoneal) in CD2F1 (CDF1) mice. As to conditions: T/C endpoint: mean survival time, higher T/C = longer survival. On the procedure: The antitumor activity of compounds was measured in mice bearing transplantable tumors. Survival or tumor size were measured and the results are expressed as the measurement made in the treated group (T) divided by the measurement made in the vehicle treated control group (C). The tumor model used in this assay is L1210 Leukemia (intraperitoneal) in CD2F1 (CDF1) mice

Setting [1] is: dose: 75.0 mg/kg/injection, schedule: Q01DX001 (ip), vehicle: saline.
Setting [2] is: dose: 150.0 mg/kg/injection, schedule: Q01DX001 (ip), vehicle: saline.
Where [3] appears, read: dose: 31.25 mg/kg/injection, schedule: Q01DX001 (ip), vehicle: distilled water + Tween-80.
[4] abbreviates: dose: 62.5 mg/kg/injection, schedule: Q01DX001 (ip), vehicle: distilled water + Tween-80.
[5] abbreviates: dose: 125.0 mg/kg/injection, schedule: Q01DX001 (ip), vehicle: distilled water + Tween-80.
The mark [6] stands for this setting: dose: 250.0 mg/kg/injection, schedule: Q01DX001 (ip), vehicle: distilled water + Tween-80.
Where [7] appears, read: dose: 500.0 mg/kg/injection, schedule: Q01DX001 (ip), vehicle: distilled water + Tween-80.
Where [8] appears, read: dose: 50.0 mg/kg/injection, schedule: Q01DX009 (ip), vehicle: saline with Tween-80.
Where [9] appears, read: dose: 100.0 mg/kg/injection, schedule: Q01DX009 (ip), vehicle: saline with Tween-80.
Setting [10] is: dose: 200.0 mg/kg/injection, schedule: Q01DX009 (ip), vehicle: saline with Tween-80.

Take `CN(CCCl)N=O`: the T/C was 100 % of control under setting [1]; 101 % of control under setting [2]; 105 % of control (dose: 300.0 mg/kg/injection, schedule: Q01DX001 (ip), vehicle: saline).
For `O=P1(N(CCCl)CCCl)OCCCN1Cl` (stereo not drawn), the T/C was 93 % of control under setting [3]; 96 % of control under setting [4]; 96 % of control under setting [5]; 109 % of control under setting [6]; 129 % of control under setting [7].
For `O=[As](O)(O)c1ccc(Cl)cc1`, the survivor count was 1 of 6 (dose: 25.0 mg/kg/injection, schedule: Q01DX009 (ip), vehicle: saline with Tween-80); 0 of 6 under setting [8]; 0 of 6 (2×) under setting [9]; 0 of 6 under setting [10]; 0 of 6 (dose: 400.0 mg/kg/injection, schedule: Q01DX009 (ip), vehicle: saline with Tween-80).
`CCC(C)NCCCl` (stereo not drawn): the T/C (dose: 100.0 mg/kg/injection, schedule: Q01DX009 (ip), vehicle: saline) was 107 % of control and the T/C (dose: 200.0 mg/kg/injection, schedule: Q01DX009 (ip), vehicle: saline) was 111 % of control [2 of 3 alive]. Further, the survivor count (dose: 400.0 mg/kg/injection, schedule: Q01DX009 (ip), vehicle: saline) is 0 of 3.
As to `N=P(O)(OCCC(O)S(=O)(=O)O)N(CCCl)CCCl` (stereo not drawn), the T/C is 111 % of control (dose: 25.0 mg/kg/injection, schedule: Q01DX001 (ip), vehicle: DMSO); 102 % of control (dose: 50.0 mg/kg/injection, schedule: Q01DX001 (ip), vehicle: DMSO); 120 % of control (dose: 100.0 mg/kg/injection, schedule: Q01DX001 (ip), vehicle: DMSO); 114 % of control (dose: 200.0 mg/kg/injection, schedule: Q01DX001 (ip), vehicle: DMSO); 107 % of control (dose: 266.0 mg/kg/injection, schedule: Q01DX001 (ip), vehicle: DMSO); 114 % of control (dose: 400.0 mg/kg/injection, schedule: Q01DX001 (ip), vehicle: DMSO, evaluated on day 25). The T/C was 123 % of control (dose: 400.0 mg/kg/injection, schedule: Q01DX001 (ip), vehicle: DMSO, evaluated on day 40); 137 % of control (dose: 600.0 mg/kg/injection, schedule: Q01DX001 (ip), vehicle: DMSO); 109 % of control [4 of 6 alive] (dose: 900.0 mg/kg/injection, schedule: Q01DX001 (ip), vehicle: DMSO).
For `CCN(CC)CCOC(=O)C(O)(c1ccccc1)C1C=CCCC1` (stereo not drawn), the T/C reads like this: under setting [1], 94 % of control; under setting [2], 94 % of control.
In the case of `Cc1nc(N)[nH]c(=O)c1CCCNc1cccnc1.O=[N+]([O-])c1cc([N+](=O)[O-])c(O)c([N+](=O)[O-])c1`, the T/C was 103 % of control (dose: 12.5 mg/kg/injection, schedule: Q01DX001 (ip), vehicle: saline with Tween-80); 87 % of control (dose: 25.0 mg/kg/injection, schedule: Q01DX001 (ip), vehicle: saline with Tween-80); 95 % of control (dose: 50.0 mg/kg/injection, schedule: Q01DX001 (ip), vehicle: saline with Tween-80).
On to `CCP1(=O)Nc2ccc(Cl)cc2N1` (stereo not drawn), for which the T/C by setting is: (dose: 100.0 mg/kg/injection, schedule: Q01DX001 (ip), vehicle: saline) 100 % of control [survivor count not shown]; (dose: 200.0 mg/kg/injection, schedule: Q01DX001 (ip), vehicle: saline) 111 % of control [survivor count not shown]; (dose: 400.0 mg/kg/injection, schedule: Q01DX001 (ip), vehicle: saline) 109 % of control [survivor count not shown].
Consider `ClC(Cl)(Cl)C1SCCCS1`, for which the T/C by setting is: under setting [8], 94 % of control; under setting [9], 97 % of control; under setting [10], 102 % of control.
As for `NC1CCCCC1.O=P(O)(N(CCCl)CCCl)N1CCCCC1`, the T/C (dose: 128.0 mg/kg/injection, schedule: Q01DX Z (ip), vehicle: saline) is 113 % of control. Besides, the survivor count (dose: 256.0 mg/kg/injection, schedule: Q01DX Z (ip), vehicle: saline) is given as 1 of 6 and the survivor count (dose: 512.0 mg/kg/injection, schedule: Q01DX Z (ip), vehicle: saline) was 0 of 6.
For the compound `CC(C)(C)C1CNP(=O)(N(CCCl)CCCl)OC1` (stereo not drawn), the T/C was 97 % of control (dose: 15.63 mg/kg/injection, schedule: Q01DX001 (ip), vehicle: distilled water + Tween-80); 97 % of control under setting [3]; 98 % of control under setting [4]; 97 % of control under setting [5]; 97 % of control [5 of 6 alive] under setting [6]. In addition, the survivor count under setting [7] was 3 of 6.
With `Cc1ccc(Nc2c([N+](=O)[O-])cc([N+](=O)[O-])cc2[N+](=O)[O-])c(C)c1`, the T/C is 103 % of control [survivor count not shown] (dose: 100.0 mg/kg/injection, schedule: Q04DX003 (ip), vehicle: saline with Tween-80); 97 % of control [survivor count not shown] (dose: 200.0 mg/kg/injection, schedule: Q04DX003 (ip), vehicle: saline with Tween-80); 103 % of control [survivor count not shown] (dose: 400.0 mg/kg/injection, schedule: Q04DX003 (ip), vehicle: saline with Tween-80).
Take `ClCC[N+]1(CCCl)CCCO1`: the T/C is, setting by setting: (dose: 33.0 mg/kg/injection, schedule: Q04DX003 (ip), vehicle: saline) 131 % of control; (dose: 50.0 mg/kg/injection, schedule: Q04DX003 (ip), vehicle: saline) 118 % of control; (dose: 75.0 mg/kg/injection, schedule: Q04DX003 (ip), vehicle: saline) 98 % of control.
With `COC1OC(CNCCCl)C2OC(C)(C)OC12` (stereo not drawn), the T/C reads like this: (dose: 25.0 mg/kg/injection, schedule: Q01DX015 (ip), vehicle: saline) 102 % of control; (dose: 50.0 mg/kg/injection, schedule: Q01DX015 (ip), vehicle: saline) 96 % of control.
In the case of `NC1CCCCC1.O=P(O)(NO)N(CCCl)CCCl`, the T/C was 100 % of control (dose: 25.0 mg/kg/injection, schedule: Q01DX001 (ip), vehicle: water); 106 % of control (dose: 50.0 mg/kg/injection, schedule: Q01DX001 (ip), vehicle: water); 124 % of control (dose: 100.0 mg/kg/injection, schedule: Q01DX001 (ip), vehicle: water); 137 % of control (dose: 200.0 mg/kg/injection, schedule: Q01DX001 (ip), vehicle: water); 149 % of control (dose: 400.0 mg/kg/injection, schedule: Q01DX001 (ip), vehicle: water).
In the case of `ClCCN(CCCl)c1cccc(CN2CCCCC2)c1.O=[N+]([O-])c1cc([N+](=O)[O-])c(O)c([N+](=O)[O-])c1`, the T/C reads like this: (dose: 12.5 mg/kg/injection, schedule: Q01DX009 (ip), vehicle: Klucel (hydroxypropylcellulose) (HPC)) 105 % of control; (dose: 25.0 mg/kg/injection, schedule: Q01DX009 (ip), vehicle: Klucel (hydroxypropylcellulose) (HPC)) 107 % of control; (dose: 50.0 mg/kg/injection, schedule: Q01DX009 (ip), vehicle: Klucel (hydroxypropylcellulose) (HPC)) 107 and 130 % of control; (dose: 100.0 mg/kg/injection, schedule: Q01DX009 (ip), vehicle: Klucel (hydroxypropylcellulose) (HPC)) 109 % of control. Further, the survivor count (dose: 200.0 mg/kg/injection, schedule: Q01DX009 (ip), vehicle: Klucel (hydroxypropylcellulose) (HPC)) was 3 of 3.
